The supplement of paper PMC4749390
Several values for one entry are separate records, joined by “and”; a condition that tells them apart may be missing. Identical values can stand only once. Counter-ions that a name gives are not always drawn. The list shows a part of the results. This data set is noisy: repeats of one test often differ as much as different tests do.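 Wild-type human LRH-1, a heavily sumoylated nuclear receptor, is tetracycline-inducible in stable JEG3 cells. RT-qPCR measured SUMO-sensitive APOC3 and MUC1 transcripts, which rise with SUMO-less LRH-1 or UBC9 knockdown, versus TBP and DMSO controls. Robust Z-scores beyond ±2 flagged primary hits, followed by toxicity and TBP filtering.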

The compounds below were run on JEG3 expressing hLRH-1 (assay: MUC1 transcript change (ddCt vs TBP and DMSO), Z-score over library; higher = higher MUC1 expression). Conditions: 10 µM; time (hr): 24.

Going from `NC[C@H]1CC[C@H](C(=O)O)CC1` [tranexamic acid] to `CC(C)[C@H]1CC[C@H](C(=O)N[C@H](Cc2ccccc2)C(=O)O)CC1` [nateglinide], the “MUC1 transcript change (Z-score)” value rises from -0.377 to 0.489.

Going from `Cc1nc(-c2ccc(OCC(C)C)c(C#N)c2)sc1C(=O)O` [febuxostat] to `COc1ccc2c(c1)c(CC(=O)O)c(C)n2C(=O)c1ccc(Cl)cc1` [Indomethacin], the “MUC1 transcript change (Z-score)” value falls from 1.57 to 0.741.

Going from `CC1(O)CCC(C(C)(C)O)CC1` (configuration not stated) [terpene hydrate] to `CC(=O)OCC(=O)[C@@]1(O)CCC2C3CCC4=CC(=O)CC[C@]4(C)C3[C@@H](O)C[C@@]21C` (some centres not stated) [hydrocortisone acetate], the “MUC1 transcript change (Z-score)” value falls from 0.325 to -0.753.

Going from `CCCCCCc1ccc(O)cc1O.Nc1c2ccccc2nc2ccccc12` [acrisorcin] to `CCN(CC)CCOC(=O)C(c1ccccc1)c1ccccc1` [adiphenine hydrochloride], the “MUC1 transcript change (Z-score)” value falls from 3.15 to 0.075.

First: Cc1nc(Nc2ncc(C(=O)Nc3c(C)cccc3Cl)s2)cc(N2CCN(CCO)CC2)n1 [dasatinib]
Second: O=C1Cc2cc(CCN3CCN(c4nsc5ccccc45)CC3)c(Cl)cc2N1 [ziprasidone mesylate]
The “MUC1 transcript change (Z-score)” value of the first is lower: -2.07 for the first, 0.135 for the second.

First: O=C(c1ccc(F)cc1)C1CCN(CCn2c(=O)[nH]c3ccccc3c2=O)CC1 [Ketanserin tartrate]
Second: O=C(CCCN1CCC(O)(c2ccc(Br)cc2)CC1)c1ccc(F)cc1 [bromperidol]
The “MUC1 transcript change (Z-score)” value of the first is lower: 0.488 for the first, 0.943 for the second.

Compared with `N[C@H](Cc1cc(I)c(Oc2ccc(O)c(I)c2)c(I)c1)C(=O)O` [liothyronine], `CC1=C(C(=O)O)N2C(=O)[C@@H](NC(=O)[C@H](N)c3ccc(O)cc3)[C@H]2SC1` [cefadroxil] is lower in “MUC1 transcript change (Z-score)” value: 0.609 for the first, 0.301 for the second.

Compared with `O=S(=O)(O)CCSSCCS(=O)(=O)O` [dimesna], `CCCCC(CC)CCC(CC(C)C)OS(=O)(=O)O` (configuration not stated) [sodium tetradecyl sulfate] is lower in “MUC1 transcript change (Z-score)” value: 0.765 for the first, 0.323 for the second.

First: COc1ccc(-c2ccc3cc(C(=O)O)ccc3c2)cc1C12CC3CC(CC(C3)C1)C2 [adapalene]
Second: Cc1ccc(C(=O)c2ccc(CC(=O)O)n2C)cc1 [tolmetin sodium]
The “MUC1 transcript change (Z-score)” value of the first is lower: -1.46 for the first, 0.123 for the second.

Compared with `C[C@@H]1CC(=O)NN=C1c1ccc(NN=C(C#N)C#N)cc1` [levosimendan], `CC(C)/N=C(N)/N=C(\N)Nc1ccc(Cl)cc1` [chlorguanide hydrochloride] is higher in “MUC1 transcript change (Z-score)” value: -0.939 for the first, 1.31 for the second.

First: Cc1cc(NS(=O)(=O)c2ccc(N)cc2)no1 [sulfamethoxazole]
Second: Nc1ccc(N=Nc2ccccc2)c(N)n1 [phenazopyridine hydrochloride]
The “MUC1 transcript change (Z-score)” value of the first is lower: -0.86 for the first, 0.0264 for the second.

Going from `O=C1OCCN1/N=C/c1ccc([N+](=O)[O-])o1` [furazolidone] to `CC(=O)NC[C@H]1CN(c2ccc(N3CCOCC3)c(F)c2)C(=O)O1` [linezolid], the “MUC1 transcript change (Z-score)” value rises from 0.524 to 1.64.

Going from `CCCCOc1ccc(OCCCN2CCOCC2)cc1` [pramoxine hydrochloride] to `CCCCOc1ccc(CC(=O)NO)cc1` [bufexamac], the “MUC1 transcript change (Z-score)” value falls from 0.0979 to -0.511.

Compared with `CC1OC1P(=O)(O)O` (configuration not stated) [fosphomycin], `C[N+](C)(C)CCOP(=O)([O-])OP(=O)(O)OC[C@H]1O[C@@H](n2ccc(N)nc2=O)[C@H](O)[C@@H]1O` [citicoline] is lower in “MUC1 transcript change (Z-score)” value: 1.34 for the first, 0.774 for the second.

Going from `Cc1ccc(C(=O)Nc2ccc(S(=O)(=O)O)c3cc(S(=O)(=O)O)cc(S(=O)(=O)O)c23)cc1NC(=O)c1cccc(NC(=O)Nc2cccc(C(=O)Nc3cc(C(=O)Nc4ccc(S(=O)(=O)O)c5cc(S(=O)(=O)O)cc(S(=O)(=O)O)c45)ccc3C)c2)c1` [Suramin hexasodium] to `O=C(O)c1cc(O)c2c(c1)[C@@H]([C@H]1c3cc(C(=O)O)cc(O)c3C(=O)c3c(O[C@H]4O[C@H](CO)[C@@H](O)[C@H](O)[C@H]4O)cccc31)c1cccc(O[C@H]3O[C@H](CO)[C@@H](O)[C@H](O)[C@H]3O)c1C2=O` (stereo in doubt) [sennoside a], the “MUC1 transcript change (Z-score)” value rises from 0.524 to 0.566.

Going from `Cc1nnc(SCC2=C(C(=O)O)N3C(=O)[C@@H](NC(=O)Cn4cnnn4)[C@H]3SC2)s1` [cefazolin sodium] to `CC(=O)OCC1=C(C(=O)O)N2C(=O)[C@@H](NC(=O)CSc3ccncc3)[C@H]2SC1` [cephapirin sodium], the “MUC1 transcript change (Z-score)” value falls from 0.418 to 0.307.

Going from `CC(=O)CCCCn1c(=O)c2c(ncn2C)n(C)c1=O` [Pentoxifylline] to `CCc1nn(CCCN2CCN(c3cccc(Cl)c3)CC2)c(=O)n1CCOc1ccccc1` [nefazodone hydrochloride], the “MUC1 transcript change (Z-score)” value falls from 0.615 to -0.944.

Compared with `O=C(O)[C@H](O)[C@@H](O)[C@H](O)[C@H](O)CO` [sodium gluconate], `Nc1nc(O)c2ncn(COC(CO)CO)c2n1` [ganciclovir] is higher in “MUC1 transcript change (Z-score)” value: 0.428 for the first, 0.832 for the second.

Going from `NS(=O)(=O)c1cc2c(cc1Cl)NC(C(Cl)Cl)NS2(=O)=O` (configuration not stated) [trichlormethiazide] to `O=S(=O)(c1cccc2cnccc12)N1CCCNCC1` [fasudil hydrochloride], the “MUC1 transcript change (Z-score)” value falls from -0.764 to -0.949.

First: CCC(C)(C)c1ccc(CC(C)CN2C[C@@H](C)O[C@@H](C)C2)cc1 (some centres not stated) [amorolfine hydrochloride]
Second: C[C@@H]1CC2C3C[C@H](F)C4=CC(=O)C=C[C@]4(C)[C@@]3(F)[C@@H](O)C[C@]2(C)[C@@]1(O)C(=O)COC(=O)C(C)(C)C (some centres not stated) [flumethazone pivalate]
The “MUC1 transcript change (Z-score)” value of the first is higher: 0.433 for the first, -0.567 for the second.

Going from `CC[C@]12CCCN3CCc4c(n(c5ccccc45)[C@@](O)(C(=O)OC)C1)[C@@H]32` [vincamine] to `COC(=O)C1=C(C)N=C(C)/C(=C(/O)OC)C1c1ccccc1[N+](=O)[O-]` (configuration not stated) [Nifedipine], the “MUC1 transcript change (Z-score)” value falls from -0.572 to -1.79.

First: C/N=C(/NC#N)NCCSCc1[nH]cnc1C [Cimetidine]
Second: CN/C(=C\[N+](=O)[O-])NCCSCc1csc(CN(C)C)n1 [nizatidine]
The “MUC1 transcript change (Z-score)” value of the first is higher: 0.871 for the first, 0.808 for the second.

Going from `NC(=O)c1cccnc1` [niacinamide] to `CN1C(=O)CC[C@H]1c1cccnc1` [cotinine], the “MUC1 transcript change (Z-score)” value rises from -1.53 to 0.461.

Compared with `Nc1nccs1` [aminothiazole], `CCc1cc(C(N)=S)ccn1` [ethionamide] is lower in “MUC1 transcript change (Z-score)” value: 1.3 for the first, -0.181 for the second.

First: N=C(N)NCCN1CCCCCCC1 [guanethidine sulfate]
Second: CCN(CC)C(=O)N1CCN(C)CC1 [diethylcarbamazine citrate]
The “MUC1 transcript change (Z-score)” value of the first is higher: 0.445 for the first, -0.106 for the second.

Going from `CCCCCCCCCCCCCCCC[N+](C)(C)C` [cetrimonium bromide] to `CCCCCCCCCCCCCCCC(=O)OC[C@@H](NC(=O)C(Cl)Cl)[C@H](O)c1ccc([N+](=O)[O-])cc1` [chloramphenicol palmitate], the “MUC1 transcript change (Z-score)” value falls from 0.873 to 0.117.

Compared with `CN(C)c1ccc(O)c2c1C[C@H]1C[C@H]3[C@H](N(C)C)C(=O)C(C(N)=O)=C(O)[C@@]3(O)C(=O)C1=C2O` [minocycline hydrochloride], `CC(=O)O[C@]1(C(C)=O)CC[C@H]2[C@@H]3C=C(Cl)C4=CC(=O)[C@@H]5C[C@@H]5[C@]4(C)[C@H]3CC[C@@]21C` [cyproterone acetate] is lower in “MUC1 transcript change (Z-score)” value: 1.86 for the first, 0.5 for the second.

First: CC1=C(/C=C/C(C)=C/C=C/C(C)=C/CO)C(C)(C)CCC1 [retinol]
Second: CC(=O)[C@H]1CC[C@H]2[C@@H]3CC=C4C[C@@H](OC(=O)CCC(=O)O)CC[C@]4(C)[C@H]3CC[C@]12C [pregnenolone succinate]
The “MUC1 transcript change (Z-score)” value of the first is lower: 0.0634 for the first, 0.389 for the second.

Compared with `C=C[C@H]1CN2CC[C@H]1C[C@@H]2[C@@H](O)c1ccnc2ccc(OC)cc12` [quinidine gluconate], `COc1ccnc(CS(=O)c2nc3cc(OC(F)F)ccc3[nH]2)c1OC` (configuration not stated) [pantoprazole] is lower in “MUC1 transcript change (Z-score)” value: 1.09 for the first, 0.717 for the second.

First: CN(C)CC/C=C1\c2ccccc2Sc2ccc(Cl)cc21 [chlorprothixene hydrochloride]
Second: CN1CCN(C2=Nc3cc(Cl)ccc3Nc3ccccc32)CC1 [Clozapine]
The “MUC1 transcript change (Z-score)” value of the first is lower: -0.443 for the first, 1.1 for the second.

Compared with `NCCC[C@H](N)CC(=O)N[C@H]1CNC(=O)[C@H]([C@H]2C[C@H](O)N=C(N)N2)NC(=O)/C(=C/NC(N)=O)NC(=O)[C@H](CO)NC(=O)[C@H](CO)NC1=O` [viomycin sulfate], `CC(C)CCC[C@@H](C)[C@H]1CC[C@H]2[C@@H]3CC=C4C[C@@H](O)CC[C@]4(C)[C@H]3CC[C@]12C` [cholesterol] is lower in “MUC1 transcript change (Z-score)” value: 0.993 for the first, 0.977 for the second.

First: Nc1cc(-c2ccncc2)cnc1O [amrinone]
Second: c1ccc(-c2ccc(C(c3ccccc3)n3ccnc3)cc2)cc1 (configuration not stated) [bifonazole]
The “MUC1 transcript change (Z-score)” value of the first is lower: -0.341 for the first, -0.206 for the second.

First: NC(=O)NO [hydroxyurea]
Second: COc1ccccc1OCC(O)COC(N)=O (configuration not stated) [methocarbamol]
The “MUC1 transcript change (Z-score)” value of the first is higher: 0.269 for the first, 0.15 for the second.

First: CC(=O)Oc1cc(C(C)C)c(OCCN(C)C)cc1C [moxisylyte hydrochoride]
Second: Cc1cn([C@H]2C=C[C@@H](CO)O2)c(=O)[nH]c1=O [stavudine]
The “MUC1 transcript change (Z-score)” value of the first is lower: -0.605 for the first, 1.04 for the second.

First: Nc1ccn(C2CSC(CO)O2)c(=O)n1 (configuration not stated) [lamivudine]
Second: N[C@@H]1CONC1=O [D-Cycloserine]
The “MUC1 transcript change (Z-score)” value of the first is lower: -1.28 for the first, -0.0421 for the second.

First: Clc1ccccc1C(c1ccccc1)(c1ccccc1)n1ccnc1 [clotrimazole]
Second: CCOc1nc2cccc(C(=O)OC(C)OC(=O)OC3CCCCC3)c2n1Cc1ccc(-c2ccccc2-c2nn[nH]n2)cc1 (configuration not stated) [candesartan cilextil]
The “MUC1 transcript change (Z-score)” value of the first is higher: 0.807 for the first, 0.0709 for the second.

Going from `CC1(C)O[C@@H]2[C@@H](CO[C@@]3(COS(N)(=O)=O)OC(C)(C)O[C@@H]23)O1` [topiramate] to `O=C(O)c1cn(-c2ccc(F)cc2)c2cc(N3CCNCC3)c(F)cc2c1=O` [sarafloxacin hydrochloride], the “MUC1 transcript change (Z-score)” value rises from -0.663 to 0.368.

In the case of `O=C(O)CCc1nc2ccccc2[nH]1` [procodazole], the “MUC1 transcript change (Z-score)” value is reported as 0.215.

`CN(C)CCC[C@@]1(c2ccc(F)cc2)OCc2cc(C#N)ccc21` [escitalopram oxalate] was tested, and the “MUC1 transcript change (Z-score)” value was 0.954 and 0.714.
With `C=CCCCCCCCCC(=O)O` [undecylenic acid] the “MUC1 transcript change (Z-score)” value was 0.787 and 1.13.
